Test system: BxPC3 cells (shSki)
Assay: MTT cell viability assay, BxPC3 shSki
Type: cell-based, human
Conditions: 72 hr
Procedure: FIG. 24. Effect of the prodrug on cell viability of BxPC3 cells (shGFP and shSki). Cells were treated with the indicated dose of drugs (BKAc-5FCR or 5FCR) for 72 hr followed by MTT assay. Data represent mean values of triplicate measurements±standard deviation. IC50 values were derived from nonlinear curve fit of the dose response data using an outlier's exclusion, variable slope model (GraphPad Prism software). All values are means of at least two independent experiments.
The in vitro efficacy of the compounds in a series of BxPC3 and CFPac-1 derivatives with reduced Class I HDAC activity following Ski knockdown (shSki), HDAC3 knockdown and control (shGFP) was assessed. The growth inhibitory/viability effects of the compounds (IC50 value, the concentration resulting in 50% growth inhibition) on the various cell lines were determined by dose response curve analysis (GraphPad Prism software) of MTT [3-(4,5dimethylthiazol-2-yl)-2,5-diphenyl-tetrazolium bromide] cell viability assay. If the prodrugs are activated in an HDAC-dependent manner, the cells with reduced HDAC activity would be predicted to be more resistant to the prodrug treatment than control cells, while the effect of free parental drugs on both cells would be expected to be similar.

SMILES	Difference in IC50 values, shSki versus shGFP
CC(=O)NCCCCC(NC(=O)OC(C)(C)C)C(=O)Nc1nc(=O)n([C@@H]2O[C@H](CO)[C@@H](O)[C@H]2O)cc1F (stereo partly drawn) [BKAc-5FCR, t-butyl (6-acetamido-1-((1-((2R,3R,4S,5R)-3,4-dihydroxy-5-(hydroxymethyl)tetrahydrofuran-2-yl)-5-fluoro-2-oxo-1,2-dihydropyrimidin-4-yl)amino)-1-oxohexan-2-yl) carbamate]	two-fold
Nc1nc(=O)n([C@@H]2O[C@H](CO)[C@@H](O)[C@H]2O)cc1F [5FCR, 5-fluorocytidine]	no significant changes

Reference: patent publication US20160184459A1, “CANCER CELL SPECIFIC IMAGING PROBES AND METHODS OF USE” (THE RESEARCH FOUNDATION FOR THE STATE UNIVERSITY OF NEW YORK, priority 2013, published 2016)
